This is an account of results in publication PMC9068651.

This experiment has as its target Shank1 PDZ domain (rat, G654-K768) (rat) (UniProt Q9WV48). The experiment in a line: NMR 15N R1 and R2 relaxation (rotational correlation time); 200 µM protein, 50 mM NaPi, 20 mM NaCl, 0.02% NaN3, pH 7.4, 8% D2O, 298 K, 700 MHz; τc from Tensor2 compared with HydroPro and with estimates from sequence length for monomer and dimer; both purified.

No constants are given. Whether binding was seen depends on the method and setting.

B1: Shank1 PDZ domain (rat, G654-K768) (domain or fragment, UniProt Q9WV48 654-768)
chain: GSHMGSDYIIKEKTVLLQKKDSEGFGFVLRGAKAQTPIEEFTPTPAFPALQYLESVDEGGVAWRAGLRMGDFLIEVNGQNVVKVGHRQVVNMIRQGGNTLMVKVVMVTRHPDMDEAVHK
Take B1: the binding result was “no binding (tested: 200 µM)”.
